# Laboratory results taken from US20080031894A1, “Beta acid based protein kinase modulation cancer treatment” (Metaproteomics, LLC, priority 2006, published 2008).
# For at least one compound, name, drawing or mass did not settle the structure.
# Legend:
# [1] = test system: NF-κB; experiment: NF-κB DNA binding (TransAM) in nuclear extracts of LPS-stimulated RAW 264.7 cells; type: cell-based, murine; settings: LPS 4 hr; MgRIAA 55 and 14, parthenolide 80 μM, LY294002 25 μM
# [2] = test system: NF-kBp65 nuclear translocation; experiment: Nuclear NF-kBp65 (TransAM ELISA) in TNFα-treated 3T3-L1 adipocytes; type: cell-based, murine; settings: three or 24 hours following TNFα
SMILES,"NF-κB DNA binding, in words [1]","nuclear NF-kBp65, in words [2]"
O=c1cc(N2CCOCC2)oc2c(-c3ccccc3)cccc12 [LY294002],modest decrease of NF-κB binding,
CCc1ccc(CCOc2ccc(CC3SC(=O)NC3=O)cc2)nc1 (centres unmarked) [Pioglitazone],,did not inhibit the amount of nuclear NF-kBp65
